Reference: PubChem BioAssay AID1508597 (Cure First, 2020)

Assay: 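Knock-downs altering ovarian cancer cell survival with or without PARP inhibitor rucaparib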 (primary screen)
Cell system: human ovarian carcinoma lines grown from tumours: OCI-P5x (papillary serous) and OCI-C5x (clear cell)
Reagent: siRNA pool against human genes, 1.25 pmol siRNA per well
Time to read-out: 72 h or 96 h, depending on the cell culture
Treatment: rucaparib 20 µM (about IC30) or vehicle, present until read-out
Measured: 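Luminescent ATP-based viability assay read 72 or 96 h after transfection, depending on culture, given as normalised percent viability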
Reading the numbers: viability, normalised: higher = more viable cells remaining
Active means: 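Active when normalised viability falls below 80 percent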
Meaning of the calls: active = viability under 80%; inactive = viability 80% or more
The whole screen tested about 2,100 reagents; shown is an unselected part. 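Calls flag viability under 80% in either arm, not effects specific to rucaparib; the reference for percent is not stated.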 The record does not give: the 100% reference.

UNC93B1 (unc-93B1 regulator of TLR signaling) [SID405526609], rucaparib or vehicle Rucaparib, cell line OCI-C5x (clear cell), technical replicate 1 scored viability, normalised (%) = 49.6; active.
UNC93B1 (unc-93B1 regulator of TLR signaling) [SID405526609], rucaparib or vehicle Rucaparib, cell line OCI-C5x (clear cell), technical replicate 2 scored viability, normalised (%) = 53.2; active.
UNC93B1 (unc-93B1 regulator of TLR signaling) [SID405526609], rucaparib or vehicle Rucaparib, cell line OCI-C5x (clear cell), technical replicate 3 scored viability, normalised (%) = 39.6; active.
For UNC93B1 (unc-93B1 regulator of TLR signaling) [SID405526609], rucaparib or vehicle Rucaparib, cell line OCI-P5x (serous), technical replicate 1, the values are viability, normalised (%) = 78.7; active.
For UNC93B1 (unc-93B1 regulator of TLR signaling) [SID405526609], rucaparib or vehicle Rucaparib, cell line OCI-P5x (serous), technical replicate 2, the entry reads viability, normalised (%) = 66.1; active.
UNC93B1 (unc-93B1 regulator of TLR signaling) [SID405526609], rucaparib or vehicle Rucaparib, cell line OCI-P5x (serous), technical replicate 3 showed viability, normalised (%) = 58.4; active.
UNC93B1 (unc-93B1 regulator of TLR signaling) [SID405526609], rucaparib or vehicle Vehicle, cell line OCI-C5x (clear cell), technical replicate 1 scored viability, normalised (%) = 62.4; active.
For UNC93B1 (unc-93B1 regulator of TLR signaling) [SID405526609], rucaparib or vehicle Vehicle, cell line OCI-C5x (clear cell), technical replicate 2, the values are viability, normalised (%) = 66.3; active.
UNC93B1 (unc-93B1 regulator of TLR signaling) [SID405526609], rucaparib or vehicle Vehicle, cell line OCI-C5x (clear cell), technical replicate 3 showed viability, normalised (%) = 38.2; active.
UNC93B1 (unc-93B1 regulator of TLR signaling) [SID405526609], rucaparib or vehicle Vehicle, cell line OCI-P5x (serous), technical replicate 1 gave viability, normalised (%) = 65; active.
UNC93B1 (unc-93B1 regulator of TLR signaling) [SID405526609], rucaparib or vehicle Vehicle, cell line OCI-P5x (serous), technical replicate 2 gave viability, normalised (%) = 64.6; active.
UNC93B1 (unc-93B1 regulator of TLR signaling) [SID405526609], rucaparib or vehicle Vehicle, cell line OCI-P5x (serous), technical replicate 3 showed viability, normalised (%) = 83.7; inactive.
